Some of the results follow. The main result of the screen is listed elsewhere. These columns were measured beside it and carry no call. Compounds called inactive in the main read-out are mostly missing here. The note in brackets gives the kind of curve behind each potency; many fits are weak.
Assay: qHTS Assay for Lipid Storage Modulators in Drosophila S3 Cells;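 for cell number change: cells counted by Cell Tracker Red CMTPX staining in the red channel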
Conditions: BODIPY lipid droplet fluorescence, 18-24 h; for cell number change: measured here: cell count max response, cells fed with added oleic acid
Procedure, shortened: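 Drosophila S3 cells loaded with oleic acid (400 uM, as added) and compounds at several concentrations; lipid droplets imaged by 488-nm laser-scanning cytometry, 500–530 nm intensity and object ratio to cell channel. Percent activity normalized to 20 uM Triacsin C.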

[1] = measured here: cell number channel AC50, cells fed with added oleic acid
[2] = measured here: lipid fluorescence (Fed channel) AC50, cells fed with added oleic acid

Compound: CCc1nnc(NC(=O)CCc2ccccc2OC)s1
- cell number change: 10.8%

Compound: Cc1ccc(S(=O)(=O)N2CCC(C(=O)NCCCN3CCOCC3)CC2)cc1C
- cell number change: -14.9%

Compound: COc1ccccc1C(=O)COC(=O)c1ccc(-n2cnnn2)cc1
- cell number change: -66%
- AC50 [1]: 14.6 µM [falling, partial curve, poor fit]

Compound: CCN(CC(=O)NC(=O)NCc1ccccc1)CC(=O)Nc1cc(Cl)ccc1C
- cell number change: 0.337%
- AC50 [1]: 6.51 µM [falling, single point]
- AC50 [2]: 0.103 µM [falling, full curve, poor fit]

Compound: CCOC(=O)Cc1csc(SCC(=O)Nc2cc(Cl)ccc2Oc2ccccc2)n1
- cell number change: 2.61%
- AC50 [2]: 6.51 µM [falling, partial curve]

Compound: Cc1cc(C)cc(N(C(=O)c2ccccn2)C(C(=O)NC2CCCCC2)c2ccncc2)c1 (stereo unspecified)
- cell number change: 9.27%
- AC50 [2]: 6.51 µM [rising, partial curve, poor fit]

Compound: COc1ccc(/C=N/Nc2cc(C)nc3c(C)cccc23)cc1
- cell number change: -49.1%
- AC50 [1]: 23.1 µM [falling, single point]

Compound: CC(SC#N)C(=O)C12CC3CC(CC(C3)C1)C2 (stereo unspecified)
- cell number change: -20.4%
- AC50 [2]: 25.9 µM [falling, single point]

Compound: Cc1cc(NC(=O)c2ccc(N(C)S(=O)(=O)c3ccccc3)cc2)no1
- cell number change: -15.2%
- AC50 [2]: 0.82 µM [falling, full curve, poor fit]

Compound: Cc1cc(C)c(-c2csc(NC(=O)c3n[nH]c(=O)c4ccccc34)n2)c(C)c1
- cell number change: -7.36%
- AC50 [2]: 11.6 µM [falling, single point]

Compound: COc1ccc(NC(=O)CCNS(=O)(=O)c2cccc(C(C)=O)c2)cc1S(N)(=O)=O
- cell number change: -13.3%
- AC50 [2]: 6.51 µM [falling, partial curve]

Compound: CC1CCC(NC(=O)C2c3ccccc3C(=O)N2Cc2cccs2)CC1 (stereo unspecified)
- cell number change: -11.4%
- AC50 [2]: 1.84 µM [falling, full curve, poor fit]

Compound: O=C(N/N=C/c1ccoc1)c1cc(Br)ccc1O
- cell number change: -30.7%
- AC50 [1]: 32.6 µM [falling, single point]
- AC50 [2]: 11.6 µM [falling, single point]

Compound: COc1ccc(CNC2c3ccccc3-c3ccccc32)cc1OC
- AC50 [2]: 10.3 µM [falling, partial curve, poor fit]

Compound: CCOC(=O)c1ccc(NC(=O)COc2cc3oc(=O)c(CC(C)O)c(C)c3cc2Cl)cc1 (stereo unspecified)
- cell number change: 18%
- AC50 [2]: 32.6 µM [rising, single point]

Compound: Cc1ccc(CSCC(=O)N(CCC(C)C)c2c(N)n(Cc3ccccc3)c(=O)[nH]c2=O)cc1
- cell number change: -44%
- AC50 [1]: 23.1 µM [falling, single point]
- AC50 [2]: 13 µM [falling, partial curve]

Compound: COCc1c(C(=O)N2CCN(c3ncccn3)CC2)oc2ccccc12
- cell number change: 32.7%
- AC50 [1]: 9.2 µM [rising, partial curve, poor fit]
- AC50 [2]: 2.06 µM [rising, full curve, poor fit]

Compound: C#CCOCCOCCOCCNc1nc(N2CCN(C(=O)CCCCCCCCCCNC(=O)Cn3cc(C[C@@H](C)O)nn3)CC2)nc(N2CCN(C(=O)CCCCCCCCCCNC(=O)[C@H](CCCCN)n3cc(C[C@@H](C)CC)nn3)CC2)n1
- cell number change: -71.9%
- AC50 [1]: 14.6 µM [falling, partial curve]
- AC50 [2]: 18.4 µM [falling, single point]

Compound: Cc1ccccc1N=Cc1c(O)n(-c2nccs2)c(=O)c2ccccc12
- cell number change: 34.9%
- AC50 [1]: 2.59 µM [rising, full curve, poor fit]
- AC50 [2]: 1.84 µM [rising, full curve]

Compound: CCOc1ccc(NC(=O)CSc2nc3ccccc3c(=O)n2CCNC(C)=O)cc1
- cell number change: 20.6%
- AC50 [2]: 0.259 µM [rising, full curve]

Compound: CC1(C)CC(=O)C(C(=O)/C=C/NCCc2ccccc2)C(=O)C1
- cell number change: -2.38%
- AC50 [2]: 29.1 µM [falling, partial curve]

Compound: Nc1nnc(-c2ccc(Cl)c(Cl)c2)s1
- cell number change: 98.2%
- AC50 [1]: 1.84 µM [rising, partial curve, poor fit]
- AC50 [2]: 0.00517 µM [rising, full curve, poor fit]

Compound: C1CCN=C(Nc2nc3c(s2)CCCC3)CC1
- AC50 [2]: 0.731 µM [falling, full curve]

Compound: Cc1ccc(C(=O)N2CCN(C)CC2)cc1S(=O)(=O)N1CCCCCC1
- cell number change: 19.9%

Compound: COc1cc(C(=S)N2CCC(C)CC2)ccc1O
- cell number change: 24.3%
- AC50 [2]: 29.1 µM [rising, single point]

Compound: O=C(NCc1ccco1)c1cccc(C(F)(F)F)c1
- cell number change: -18.8%
- AC50 [2]: 29.1 µM [falling, single point]

Compound: Cc1onc(-c2c(F)cccc2Cl)c1C(=O)N1CCOC12CCCCC2
- cell number change: 81.5%
- AC50 [1]: 7.31 µM [rising, partial curve]
- AC50 [2]: 9.2 µM [rising, partial curve]

Compound: COc1ccccc1-c1nc(-c2ccccn2)no1
- cell number change: 6.45%

Compound: Cc1cnc(C(=O)OCC(=O)c2ccc(-c3ccccc3)cc2)cn1
- cell number change: 24.9%
- AC50 [2]: 29.1 µM [rising, single point]

Compound: CCC(=O)NS(=O)(=O)c1ccc(N=NN2CCCCC2)cc1
- cell number change: -31.2%
- AC50 [2]: 0.58 µM [falling, full curve, poor fit]

Compound: O=C(Nc1ccc(N2CCOCC2)c2nonc12)C1CCCC1
- cell number change: -4.5%
- AC50 [2]: 2.06 µM [rising, partial curve]

Compound: CC(C)CCn1nnnc1C(c1ccc(N(C)C)cc1)N1CCN(C(=O)c2ccco2)CC1 (stereo unspecified)
- cell number change: 12.5%
- AC50 [2]: 13 µM [rising, partial curve]

Compound: O=S(=O)(NCc1cn2ccccc2n1)c1cccs1
- cell number change: -1.45%
- AC50 [1]: 3.26 µM [rising, single point]
- AC50 [2]: 1.84 µM [rising, partial curve]

Compound: O=C1N/C(=C/c2ccco2)C(=O)N1Cc1ccccc1F
- cell number change: -4.49%
- AC50 [2]: 1.64 µM [rising, full curve]

Compound: O=C(c1ccco1)N(Cc1cc2ccccc2[nH]c1=O)CC1CCCO1 (stereo unspecified)
- cell number change: 11.8%
- AC50 [2]: 0.326 µM [rising, partial curve, poor fit]

Compound: CCC(C)n1c(SC(C)C#N)nc2ccccc2c1=O (stereo unspecified)
- cell number change: -3.11%
- AC50 [2]: 4.11 µM [rising, full curve, poor fit]

Compound: O=C(CN1C2=NCCCN2c2ccccc21)c1ccc([N+](=O)[O-])cc1
- cell number change: -22.2%
- AC50 [2]: 0.411 µM [falling, partial curve, poor fit]

Compound: c1ccc(Cn2c[n+](Cc3ccccc3)cn2)cc1
- cell number change: -19.6%
- AC50 [1]: 4.61 µM [falling, full curve, poor fit]
- AC50 [2]: 29.1 µM [falling, single point]

Compound: O=C(NCCc1ccccc1)c1c(F)cccc1F
- cell number change: 4.77%
- AC50 [2]: 18.4 µM [rising, single point]

Compound: O=[N+]([O-])c1cccc2c(N3CCCC3)ccnc12
- cell number change: -31.1%
- AC50 [1]: 20.6 µM [falling, single point]
- AC50 [2]: 23.1 µM [falling, single point]

Compound: COCc1cc(=O)[nH]c(/N=C(\N)Nc2ccccc2C)n1
- AC50 [2]: 2.91 µM [rising, partial curve]

Compound: O=C(COc1ccc(F)cc1)NCCN1CCCC1
- cell number change: -19.1%
- AC50 [2]: 32.6 µM [falling, single point]

Compound: Cc1ccc(S(=O)(=O)N2CCN(C(=O)CCn3nc(C)c(C)c3C)CC2)cc1C
- cell number change: 5.56%
- AC50 [2]: 29.1 µM [rising, partial curve, poor fit]

Compound: Cc1ccccc1-n1nc2c(c1NC(=O)c1cc3ccccc3o1)CS(=O)(=O)C2
- cell number change: -9%

Compound: Cc1ccc(NC(=O)Nc2ccc3c(c2)N(C)C(=O)CS3)cc1C
- cell number change: -35.2%
- AC50 [1]: 32.6 µM [falling, single point]
- AC50 [2]: 20.6 µM [falling, single point]

Compound: Cc1ccc(N(Cc2ccccc2)C(=O)c2cccc(S(=O)(=O)N3CC(C)OC(C)C3)c2)cc1 (stereo unspecified)
- cell number change: 2.18%
- AC50 [2]: 6.51 µM [rising, single point]

Compound: Cc1ccc2c(c1)CCCN2C(=O)c1cccs1
- AC50 [2]: 29.1 µM [rising, single point]

Compound: CCOC(=O)CC1C(=O)NCCN1S(=O)(=O)c1ccc(NC(C)=O)cc1 (stereo unspecified)
- cell number change: -18.4%

Compound: COc1ccc(/C(C)=N/NS(=O)(=O)c2ccccc2)c(OC)c1
- cell number change: 0.883%

Compound: CC(C)(C)c1ccc(OCC(=O)NNC(=O)Cc2cccs2)cc1
- cell number change: -22%

Compound: Cc1ccccc1-n1c(SCc2c(C)noc2C)nnc1-c1ccncc1
- AC50 [2]: 6.51 µM [falling, single point]

Compound: COc1ccc(OC)c(N2Cc3cc(C)c(C)cc3C2)c1
- cell number change: 102%
- AC50 [1]: 14.6 µM [rising, partial curve]
- AC50 [2]: 6.51 µM [rising, single point]

Compound: Oc1ccccc1-c1nc2ccccc2nc1-c1ccccc1
- cell number change: 8.54%

Compound: COc1ccc(CCN2C(=O)C3C4CC(C5C(C(N)=O)=NOC45)C3C2=O)cc1OC (stereo unspecified)
- cell number change: -87.2%
- AC50 [1]: 23.1 µM [falling, partial curve, poor fit]
- AC50 [2]: 18.4 µM [falling, partial curve]

Compound: CC1CCC(NC(=O)COC(=O)c2ccco2)CC1 (stereo unspecified)
- cell number change: 1.25%
- AC50 [2]: 2.06 µM [rising, partial curve]

Compound: COc1ccccc1N1C(=O)CC1(C#N)c1ccc(OCc2ccccc2)cc1 (stereo unspecified)
- cell number change: 59%
- AC50 [1]: 29.1 µM [rising, single point]

Compound: NC(=O)CC(NC(=O)Cc1ccc(Br)cc1)c1ccc(NCCc2ccccc2F)c([N+](=O)[O-])c1 (stereo unspecified)
- cell number change: 17.1%
- AC50 [2]: 4.11 µM [rising, single point]

Compound: CCOC(=O)N1CCC(NC(=O)COc2cc(=O)n(C)c3ccccc23)CC1
- cell number change: -4.97%
- AC50 [2]: 6.51 µM [rising, single point]

From PubChem BioAssay AID2685 (National Center for Advancing Translational Sciences (NCATS), 2010)
